Data source: PubChem BioAssay AID1259254 (NCATS, 2017)
Screen: 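Genome-wide screen for genes that prevent DNA re-replication in cancer cells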 (primary screen). Cell system: human HCT116 colorectal cancer cells. Knock-down reagent: single siRNA against human genes. Timing: 3 days. Measured: 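Nuclei stained with Hoechst and imaged; cell-cycle phase assigned by DNA content; G2 share scaled per plate, non-targeting siRNA 0%, GMNN siRNA 100%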. Direction: G2 robust z-score and G2 cells, % of GMNN control: higher = more G2 cells, more excess DNA replication; raw share of cells in G2: higher = larger share of cells with G2 DNA content. Rule for the call: 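Active siRNAs have a G2 robust z of 5 or more median absolute deviations over the median, which in these data means about 38% or higher of GMNN control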.
This is a random part of about 59,000 reagents tested. About 1,550 of all reagents (2.6%) were called active. 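G2 share is only a proxy for re-replication; each gene was hit by three separate siRNAs, and active genes were retested.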 The raw values are shown without normalisation. Reagents against one gene are numbered here. Not given: the amount of reagent.

no.	Gene	siRNA no.	G2 robust z-score	G2 cells, % of GMNN control	raw share of cells in G2 (%)	Outcome
1	SORCS2 (sortilin related VPS10 domain containing receptor 2)	1	-0.185	1.67	6.34	inactive
2	SORCS2 (sortilin related VPS10 domain containing receptor 2)	2	-0.811	-2.74	3.38	inactive
3	SORCS2 (sortilin related VPS10 domain containing receptor 2)	3	1.43	13	8.95	inactive
4	GNB1L (G protein subunit beta 1 like)	1	1.54	13.8	7.74	inactive
5	GNB1L (G protein subunit beta 1 like)	2	0.0523	3.34	4.8	inactive
6	GNB1L (G protein subunit beta 1 like)	3	-0.163	1.82	5.04	inactive
7	GIMAP4 (GTPase, IMAP family member 4)	1	1.94	16.7	10.9	inactive
8	GIMAP4 (GTPase, IMAP family member 4)	2	2.96	23.8	14	inactive
9	GIMAP4 (GTPase, IMAP family member 4)	3	-0.758	-2.37	2.38	inactive
10	FAM131B (family with sequence similarity 131 member B)	1	0.125	3.84	7.07	inactive
11	FAM131B (family with sequence similarity 131 member B)	2	3.53	27.8	15.6	inactive
12	FAM131B (family with sequence similarity 131 member B)	3	2.08	17.6	9.82	inactive
13	CLDN6 (claudin 6)	1	-0.0851	2.37	4.31	inactive
14	CLDN6 (claudin 6)	2	-1.08	-4.65	3.92	inactive
15	CLDN6 (claudin 6)	3	0.288	4.99	5.43	inactive
16	PDSS1 (decaprenyl diphosphate synthase subunit 1)	1	0.22	4.52	8.18	inactive
17	PDSS1 (decaprenyl diphosphate synthase subunit 1)	2	-0.405	0.117	4.19	inactive
18	PDSS1 (decaprenyl diphosphate synthase subunit 1)	3	-0.699	-1.95	3.2	inactive
19	BCAS1 (brain enriched myelin associated protein 1)	1	5.57	42.2	23.8	active
20	BCAS1 (brain enriched myelin associated protein 1)	2	1	10	7.87	inactive
21	BCAS1 (brain enriched myelin associated protein 1)	3	-0.542	-0.843	3.05	inactive
22	CYP2A6 (cytochrome P450 family 2 subfamily A member 6)	1	0.484	6.37	7.23	inactive
23	CYP2A6 (cytochrome P450 family 2 subfamily A member 6)	2	-0.203	1.54	5.55	inactive
24	CYP2A6 (cytochrome P450 family 2 subfamily A member 6)	3	-1.01	-4.17	2.66	inactive
25	PAAF1 (proteasomal ATPase associated factor 1)	1	0.0113	3.05	5.91	inactive
26	PAAF1 (proteasomal ATPase associated factor 1)	2	0.87	9.09	7.48	inactive
27	PAAF1 (proteasomal ATPase associated factor 1)	3	0.162	4.11	7.14	inactive
28	GPATCH1 (G-patch domain containing 1)	1	0.388	5.7	6.71	inactive
29	GPATCH1 (G-patch domain containing 1)	2	-0.0578	2.56	5.2	inactive
30	GPATCH1 (G-patch domain containing 1)	3	1.13	10.9	6.61	inactive

Ordered by “G2 robust z-score” (descending): some entries from above
Gene	siRNA no.	G2 robust z-score	G2 cells, % of GMNN control	raw share of cells in G2 (%)	Outcome
GPATCH1 (G-patch domain containing 1)	1	0.388	5.7	6.71	inactive
GPATCH1 (G-patch domain containing 1)	2	-0.0578	2.56	5.2	inactive
